Source: patent US20120172333A1, “PYRROLO-PYRIDINE DERIVATIVES AS ACTIVATORS OF AMPK” (GLAXOSMITHKLINE LLC, priority 2009, published 2012)
Some entries share one result that the patent states for a list of compounds.

The compounds below were run on Human recombinant AMPK (assay: AMPK enzymatic assay (Z'Lyte FRET)). Conditions: ATP 100 μM, peptide 2 μM, 1% DMSO, 1 hour at 30° C.; means of at least 2 independent experiments.
Format: biochemical

| SMILES | pEC200 (-Log(compound concentration leading to a 2-fold AMPK activity increase)) |
| --- | --- |
| N#Cc1c(O)c2c(ccn2-c2ccc(-c3cccc(F)c3O)cc2)[nH]c1=O [Example 57, 1-(3′-Fluoro-2′-hydroxy-4-biphenylyl)-7-hydroxy-5-oxo-4,5-dihydro-1H-pyrrolo[3,2-b]pyridine-6-carbonitrile] | greater than 4.0 |
| N#Cc1c(O)c2c(ccn2-c2ccc(-c3cc(F)ccc3O)cc2)[nH]c1=O [Example 61, 1-(5′-Fluoro-2′-hydroxy-4-biphenylyl)-7-hydroxy-5-oxo-4,5-dihydro-1H-pyrrolo[3,2-b]pyridine-6-carbonitrile] | greater than 4.0 |
| N#Cc1c(O)c2c(ccn2-c2ccc(-c3ccc(Cl)cc3)cc2)[nH]c1=O [Example 12, 1-(4′-Chloro-4-biphenylyl)-7-hydroxy-5-oxo-4,5-dihydro-1H-pyrrolo[3,2-b]pyridine-6-carbonitrile] | greater than 4.0 |
| Cc1ccc(O)c(-c2ccc(-n3ccc4[nH]c(=O)c(C#N)c(O)c43)cc2)c1 [Example 64, 7-hydroxy-1-(2′-hydroxy-5′-methyl-4-biphenylyl)-5-oxo-4,5-dihydro-1H-pyrrolo[3,2-b]pyridine-6-carbonitrile] | greater than 4.0 |
| N#Cc1c(O)c2c(ccn2-c2ccc(-c3cccnc3)cc2)[nH]c1=O [Example 53, 7-Hydroxy-5-oxo-1-[4-(3-pyridinyl)phenyl]-4,5-dihydro-1H-pyrrolo[3,2-b]pyridine-6-carbonitrile] | greater than 4.0 |
| N#Cc1c(O)c2c(ccn2-c2ccc(-c3ccc(Cl)cc3O)cc2)[nH]c1=O [Example 63, 1-(4′-Chloro-2′-hydroxy-4-biphenylyl)-7-hydroxy-5-oxo-4,5-dihydro-1H-pyrrolo[3,2-b]pyridine-6-carbonitrile] | greater than 4.0 |
| N#Cc1ccc(-c2ccc(-n3ccc4[nH]c(=O)c(C#N)c(O)c43)cc2)cc1 [Example 16, 1-(4′-Cyano-4-biphenylyl)-7-hydroxy-5-oxo-4,5-dihydro-1H-pyrrolo[3,2-b]pyridine-6-carbonitrile] | greater than 4.0 |
| N#Cc1c(O)c2c(cc(Cl)n2-c2ccc(-c3ccc(F)cc3)cc2)[nH]c1=O [Example 28, 2-Chloro-1-(4′-fluoro-4-biphenylyl)-7-hydroxy-5-oxo-4,5-dihydro-1H-pyrrolo[3,2-b]pyridine-6-carbonitrile] | greater than 4.0 |
| Cn1c(=O)c(C#N)c(O)c2c1ccn2-c1ccc(-c2ccc(F)cc2)cc1 [Example 20, 1-(4′-Fluoro-4-biphenylyl)-7-hydroxy-4-methyl-5-oxo-4,5-dihydro-1H-pyrrolo[3,2-b]pyridine-6-carbonitrile] | greater than 4.0 |
| N#Cc1c(O)c2c(ccn2-c2ccc(-c3cccc(F)c3)cc2)[nH]c1=O [Example 8, 1-(3′-Fluoro-4-biphenylyl)-7-hydroxy-5-oxo-4,5-dihydro-1H-pyrrolo[3,2-b]pyridine-6-carbonitrile] | greater than 4.0 |
| O=c1[nH]c2ccn(-c3ccc(Br)cc3)c2c(O)c1-c1ccc(F)cc1 [Example 36, 1-(4-Bromophenyl)-6-(4-fluorophenyl)-7-hydroxy-1,4-dihydro-5H-pyrrolo[3,2-b]pyridin-5-one] | greater than 4.0 |
| N#Cc1c(O)c2c(ccn2-c2ccc(-c3ccc(F)cc3F)cc2)[nH]c1=O [Example 32, 1-(2′,4′-Difluoro-4-biphenylyl)-7-hydroxy-5-oxo-4,5-dihydro-1H-pyrrolo[3,2-b]pyridine-6-carbonitrile] | greater than 4.0 |
| CCOC(=O)c1c(O)c2c(ccn2-c2ccc(-c3ccccc3O)cc2)[nH]c1=O [Example 30, Ethyl 7-hydroxy-1-(2′-hydroxy-4-biphenylyl)-5-oxo-4,5-dihydro-1H-pyrrolo[3,2-b]pyridine-6-carboxylate] | greater than 4.0 |
| N#Cc1ccccc1-c1ccc(-n2ccc3[nH]c(=O)c(C#N)c(O)c32)cc1 [Example 7, 1-(2′-Cyano-4-biphenylyl)-7-hydroxy-5-oxo-4,5-dihydro-1H-pyrrolo[3,2-b]pyridine-6-carbonitrile] | greater than 4.0 |
| N#Cc1c(O)c2c(ccn2-c2ccc(-c3ccc4c(c3)OCO4)cc2)[nH]c1=O [Example 46, 1-[4-(1,3-Benzodioxol-5-yl)phenyl]-7-hydroxy-5-oxo-4,5-dihydro-1H-pyrrolo[3,2-b]pyridine-6-carbonitrile] | greater than 4.0 |

Same assay, conditions: same AMPK enzymatic assay; ATP 100 μM, peptide 2 μM

| SMILES | average pEC50 |
| --- | --- |
| COc1ccc(-n2c(Cl)cc3[nH]c(=O)c(-c4ccccc4)c(O)c32)cc1 [Example 125, 2-Chloro-7-hydroxy-1-[4-(methyloxy)phenyl]-6-phenyl-1,4-dihydro-5H-pyrrolo[3,2-b]pyridin-5-one] | greater than 4.5 |
| N#Cc1c(O)c2c(ccn2-c2ccc(-c3ccc(S(N)(=O)=O)s3)cc2)[nH]c1=O [Example 90, 5-[4-(6-Cyano-7-hydroxy-5-oxo-4,5-dihydro-1H-pyrrolo[3,2-b]pyridin-1-yl)phenyl]-2-thiophenesulfonamide] | greater than 4.5 |
| NC(=O)c1cccc(-c2c(O)c3c(cc(Cl)n3-c3ccc(-c4ccsc4)cc3)[nH]c2=O)c1 [Example 161, 3-{2-Chloro-7-hydroxy-5-oxo-1-[4-(3-thienyl)phenyl]-4,5-dihydro-1H-pyrrolo[3,2-b]pyridin-6-yl} benzamide] | greater than 4.5 |

Further lines, results first:

| average pEC50 | SMILES |
| --- | --- |
| greater than 4.5 | Cc1ccc(-n2c(Cl)cc3[nH]c(=O)c(-c4cccc(C(=O)O)c4)c(O)c32)cc1 [Example 146] |
| greater than 4.5 | N#Cc1cscc1-c1ccc(-n2c(Cl)cc3[nH]c(=O)c(C#N)c(O)c32)cc1 [Example 101, 2-Chloro-1-[4-(4-cyano-3-thienyl)phenyl]-7-hydroxy-5-oxo-4,5-dihydro-1H-pyrrolo[3,2-b]pyridine-6-carbonitrile] |
| greater than 4.5 | Cc1ccc(-n2c(Cl)cc3[nH]c(=O)c(-c4ccccc4)c(O)c32)cc1 [Example 133, 2-Chloro-7-hydroxy-1-(4-methylphenyl)-6-phenyl-1,4-dihydro-5H-pyrrolo[3,2-b]pyridin-5-one] |
| greater than 4.5 | O=C(O)c1cccc(-c2c(O)c3c(cc(Cl)n3-c3ccc(-c4ccsc4)cc3)[nH]c2=O)c1 [Example 151, 3-{2-Chloro-7-hydroxy-5-oxo-1-[4-(3-thienyl)phenyl]-4,5-dihydro-1H-pyrrolo[3,2-b]pyridin-6-yl}benzoic acid] |
| greater than 4.5 | N#Cc1ccc(-c2c(O)c3c(cc(Cl)n3-c3ccc(-c4ccsc4)cc3)[nH]c2=O)cc1 [Example 154, 4-{2-Chloro-7-hydroxy-5-oxo-1-[4-(3-thienyl)phenyl]-4,5-dihydro-1H-pyrrolo[3,2-b]pyridin-6-yl}benzonitrile] |
| greater than 4.5 | Cn1cc(-c2ccc(-n3c(Cl)cc4[nH]c(=O)c(C#N)c(O)c43)cc2)cn1 [Example 106, 2-Chloro-7-hydroxy-1-[4-(1-methyl-1H-pyrazol-4-yl)phenyl]-5-oxo-4,5-dihydro-1H-pyrrolo[3,2-b]pyridine-6-carbonitrile] |
| greater than 4.5 | CCc1ccc(-n2c(C#N)cc3[nH]c(=O)c(C#N)c(O)c32)cc1 [Example 118, 1-(4-Ethylphenyl)-7-hydroxy-5-oxo-4,5-dihydro-1H-pyrrolo[3,2-b]pyridine-2,6-dicarbonitrile] |
| greater than 4.5 | CC(=O)Nc1ccc(-n2c(Cl)cc3[nH]c(=O)c(C#N)c(O)c32)cc1 [Example 157, N-[4-(2-Chloro-6-cyano-7-hydroxy-5-oxo-4,5-dihydro-1H-pyrrolo[3,2-b]pyridin-1-yl)phenyl]acetamide] |
| greater than 4.5 | N#Cc1c(O)c2c(cc(Cl)n2-c2ccc(-c3cccs3)cc2)[nH]c1=O [Example 113, 2-Chloro-7-hydroxy-5-oxo-1-[4-(2-thienyl)phenyl]-4,5-dihydro-1H-pyrrolo[3,2-b]pyridine-6-carbonitrile] |
| greater than 4.5 | COc1cccc(-c2ccc(-n3c(Cl)cc4[nH]c(=O)c(-c5cccc(C(=O)O)c5)c(O)c43)cc2)c1O [Example 166, 3-{2-Chloro-7-hydroxy-1-[2′-hydroxy-3′-(methyloxy)-4-biphenylyl]-5-oxo-4,5-dihydro-1H-pyrrolo[3,2-b]pyridin-6-yl}benzoic acid] |
| greater than 4.5 | N#Cc1c(O)c2c(cc(Cl)n2-c2ccc(-c3c(O)cccc3F)cc2)[nH]c1=O [Example 83, 2-Chloro-1-(6′-fluoro-2′-hydroxy-4-biphenylyl)-7-hydroxy-5-oxo-4,5-dihydro-1H-pyrrolo[3,2-b]pyridine-6-carbonitrile] |
| greater than 4.5 | COc1cccc(-n2c(Cl)cc3[nH]c(=O)c(-c4ccc(F)cc4)c(O)c32)c1 [Example 129, 2-Chloro-6-(4-fluorophenyl)-7-hydroxy-1-[3-(methyloxy)phenyl]-1,4-dihydro-5H-pyrrolo[3,2-b]pyridin-5-one] |
| greater than 4.5 | COc1cccc(-n2c(Cl)cc3[nH]c(=O)c(-c4ccccc4)c(O)c32)c1 [Example 130, 2-Chloro-7-hydroxy-1-[3-(methyloxy)phenyl]-6-phenyl-1,4-dihydro-5H-pyrrolo[3,2-b]pyridin-5-one] |
| greater than 4.5 | COc1cccc(-c2ccc(-n3c(Cl)cc4[nH]c(=O)c(-c5ccccc5)c(O)c43)cc2)c1O [Example 163, 2-Chloro-7-hydroxy-1-[2′-hydroxy-3′-(methyloxy)-4-biphenylyl]-6-phenyl-1,4-dihydro-5H-pyrrolo[3,2-b]pyridin-5-one] |
| greater than 4.5 | Cc1ccc(-n2c(Cl)cc3[nH]c(=O)c(-c4ccc(F)cc4)c(O)c32)cc1 [Example 131, 2-Chloro-6-(4-fluorophenyl)-7-hydroxy-1-(4-methylphenyl)-1,4-dihydro-5H-pyrrolo[3,2-b]pyridin-5-one] |
